In patent US20180105596A1 (ELSALYS BIOTECH, published 2018):
No constants are given. Whether binding was seen depends on the method and setting. Binding can be weak; no strength is given.

Target: murine TYRO3-ECD
Assay: sandwich ELISA, Strep-tagged murine Tyro3 ECD captured on StrepMAB plate, scFv 10 µg/mL (Table 16), anti-FLAG-HRP

binding: binds
B1: anti-Tyro3 scFv 2718 (scFv, V domains shown)
VH: EVQLVQSGADVKKPGASLTISCQASGYTFTDYWISWVRQKPGKGLEWMGHINPMRSTTTYGPSFQGHVTISADRSTATAYLQWHSLEASDTAMYYCVRNDNHDDYTYTDDWGPGTLVTVSS
VL: SYELTQPPSVSVSPGQTARITCSGDALPKKYAYWYQQKSGQAPVLVIYEDTKRHSGIPERFSGSSSGTMATLTISGAQVEDEADYYCYSAEHRGNYAVFGGGTKLTVL
notes: Tested as a single-chain Fv made in E. coli
